# Source: PubChem BioAssay (NCATS)
# The other results are listed elsewhere or left out. Shown are side measurements of this screen, not its main read-out; they come without a call. Most of these compounds were active or inconclusive in the main read-out, so they are no random draw. Words in brackets tell the shape of the fitted curve; partial curves, single points and poor fits give uncertain potencies.
# Assay: qHTS Assay for Inhibitors of PDE-IV (AID 607)
# Details: HEK293 ACTOne CNG channel cells, membrane potential fluorescence; measured here: parental cell counter-screen
# In short: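 HEK293 ACTOne cells with CNG channel (1000/well), endogenous PDE4; membrane potential dye, compounds up to 22.9 uM final. Fluorescence Ex 535/Em 590; RO 20-1724 (100 uM final) as reference.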
row,Compound,AC50
1,Cc1ccc(CNC(=O)[C@H](C)[C@@H]2C[C@@]2(C)[C@@H](NC(=O)OCc2ccccc2)c2ccccc2)c(F)c1F,"12.6 µM [rising, single point]"
2,COc1cccc(-c2cc(NCc3cccc(C)c3)ncn2)c1,"12.6 µM [rising, single point]"
3,C=C[C@@]1(C)CC(=O)[C@@]2(O)[C@@]3(C)[C@H](O)CCC(C)(C)[C@@H]3[C@H](O)[C@H](OC(C)=O)[C@]2(C)O1,"3.98 µM [rising, full curve]"
4,O=S(=O)(c1ccccc1)N1CCC[C@@]2(CCN(Cc3cc(C(F)(F)F)cc(C(F)(F)F)c3)C2)C1,"0.1 µM [rising, full curve, poor fit]"
5,c1ccc(-c2c3ccccc3nc3[nH]c4ccccc4c23)cc1,"12.6 µM [rising, partial curve]"
6,CC(C)(C)[C@@]1(O)CCN2C[C@@H]3c4ccccc4CCc4cccc(c43)[C@@H]2C1,"5.01 µM [rising, partial curve, poor fit]"
7,CC(C)NC(=O)N1CCC2(CC1)CCN(C(=O)c1cc(C(F)(F)F)cc(C(F)(F)F)c1)CC2,"3.98 µM [rising, single point]"
8,N#Cc1ccccc1-c1ccc2ncnc(NCc3cccs3)c2c1,"10 µM [rising, single point]"
9,CC(C)c1cc(C(F)(F)F)nc(NNc2nc(C(C)C)cc(C(F)(F)F)n2)n1,"1.26 µM [rising, partial curve]"
10,C[C@@H](C(=O)Nc1ccc2ccccc2c1)[C@@H]1C[C@@]1(C)[C@@H](NC(=O)c1cccnc1)c1ccccc1,"2.51 µM [rising, single point]"

# Shown with tabs: two of the compounds above.
row	Compound	AC50
7	CC(C)NC(=O)N1CCC2(CC1)CCN(C(=O)c1cc(C(F)(F)F)cc(C(F)(F)F)c1)CC2	3.98 µM [rising, single point]
8	N#Cc1ccccc1-c1ccc2ncnc(NCc3cccs3)c2c1	10 µM [rising, single point]
